In the supplement of paper PMC12819154, “High-throughput peptide-centric local stability assay extends protein–ligand identification to membrane proteins, tissues and bacteria” (Nature Structural & Molecular Biology, 2025):
The other results are listed elsewhere or left out. Most values lie at the level of the controls, where differences are scatter.

Sequences of proteins named here, by UniProt entry; tags and fusion partners are left off. A change or cut given only in a name is not applied to a line headed by its entry.
UniProt P00393: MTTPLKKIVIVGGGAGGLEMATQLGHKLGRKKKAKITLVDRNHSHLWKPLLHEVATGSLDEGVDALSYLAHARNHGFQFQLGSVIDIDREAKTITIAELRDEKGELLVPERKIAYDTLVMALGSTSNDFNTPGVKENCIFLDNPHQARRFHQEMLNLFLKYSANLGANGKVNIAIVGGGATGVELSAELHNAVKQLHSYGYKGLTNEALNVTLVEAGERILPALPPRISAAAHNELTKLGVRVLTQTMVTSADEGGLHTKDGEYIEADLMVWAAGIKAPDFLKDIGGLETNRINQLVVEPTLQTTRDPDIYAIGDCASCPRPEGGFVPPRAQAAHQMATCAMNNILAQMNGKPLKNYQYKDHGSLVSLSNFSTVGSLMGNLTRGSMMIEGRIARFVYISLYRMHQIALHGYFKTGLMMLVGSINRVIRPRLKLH
UniProt P00935: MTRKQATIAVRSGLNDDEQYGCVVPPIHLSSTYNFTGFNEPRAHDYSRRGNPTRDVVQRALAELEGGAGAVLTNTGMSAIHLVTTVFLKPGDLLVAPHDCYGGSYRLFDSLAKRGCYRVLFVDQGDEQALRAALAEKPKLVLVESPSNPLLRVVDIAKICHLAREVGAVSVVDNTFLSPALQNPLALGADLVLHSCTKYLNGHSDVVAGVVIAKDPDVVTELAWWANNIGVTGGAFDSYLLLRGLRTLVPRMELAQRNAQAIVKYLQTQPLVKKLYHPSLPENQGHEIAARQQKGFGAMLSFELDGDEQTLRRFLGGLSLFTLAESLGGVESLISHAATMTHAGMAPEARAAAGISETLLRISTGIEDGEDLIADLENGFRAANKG
UniProt P08395: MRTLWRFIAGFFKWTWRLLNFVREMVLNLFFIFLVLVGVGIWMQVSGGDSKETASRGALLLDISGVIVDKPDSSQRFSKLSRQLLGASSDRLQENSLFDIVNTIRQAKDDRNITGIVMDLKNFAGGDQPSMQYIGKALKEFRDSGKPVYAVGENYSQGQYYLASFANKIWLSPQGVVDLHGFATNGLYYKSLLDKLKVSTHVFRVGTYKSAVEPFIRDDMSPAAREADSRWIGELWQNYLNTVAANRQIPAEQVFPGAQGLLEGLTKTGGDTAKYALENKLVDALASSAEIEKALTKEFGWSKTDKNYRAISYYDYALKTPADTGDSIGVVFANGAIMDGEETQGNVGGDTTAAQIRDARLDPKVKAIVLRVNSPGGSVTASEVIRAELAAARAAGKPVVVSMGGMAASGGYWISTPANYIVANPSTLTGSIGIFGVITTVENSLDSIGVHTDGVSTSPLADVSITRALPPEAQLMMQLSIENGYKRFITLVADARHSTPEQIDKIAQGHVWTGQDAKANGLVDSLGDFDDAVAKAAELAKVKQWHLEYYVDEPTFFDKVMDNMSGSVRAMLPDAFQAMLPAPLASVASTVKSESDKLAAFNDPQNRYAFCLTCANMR
UniProt P08331: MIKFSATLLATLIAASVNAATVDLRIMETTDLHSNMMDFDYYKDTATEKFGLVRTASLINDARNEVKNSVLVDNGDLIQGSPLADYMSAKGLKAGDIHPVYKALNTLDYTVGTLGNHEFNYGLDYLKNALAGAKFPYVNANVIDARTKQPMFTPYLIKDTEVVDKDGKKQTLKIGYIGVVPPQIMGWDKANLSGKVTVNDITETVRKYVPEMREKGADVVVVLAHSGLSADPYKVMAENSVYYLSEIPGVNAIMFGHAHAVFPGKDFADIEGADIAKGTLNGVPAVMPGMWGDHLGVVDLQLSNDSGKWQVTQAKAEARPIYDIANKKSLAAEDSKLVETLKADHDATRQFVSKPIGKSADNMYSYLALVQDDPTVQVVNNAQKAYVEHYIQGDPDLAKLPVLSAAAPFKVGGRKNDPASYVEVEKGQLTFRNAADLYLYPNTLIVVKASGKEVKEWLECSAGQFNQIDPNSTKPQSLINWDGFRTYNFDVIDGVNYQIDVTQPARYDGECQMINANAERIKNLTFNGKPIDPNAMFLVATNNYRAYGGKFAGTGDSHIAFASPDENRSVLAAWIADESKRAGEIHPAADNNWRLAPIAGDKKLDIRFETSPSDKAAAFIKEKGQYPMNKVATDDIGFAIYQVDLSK

compound: CC1(C)S[C@@H]2[C@H](NC(=O)[C@H](N)c3ccccc3)C(=O)N2[C@H]1C(=O)O [ampicillin]; assay: log2 fold change of tryptic peptide abundance, ligand vs vehicle (limited proteolysis) (log2 ratio); higher = more trypsin-susceptible (destabilized); details: ligand concentration: 10 uM; sample: E. coli crude lysate

| Target | log2 fold change |
| --- | --- |
| UniProt P00393 (peptide sequence: TITIAELR, peptide start residue: 93) | -0.349 |
| UniProt P00935 (peptide sequence: AAAGISETLLR, peptide start residue: 351) | 0.0616 |
| UniProt P08395 (peptide sequence: NITGIVMDLK, peptide start residue: 112) | 0.195 |
| UniProt P08331 (peptide sequence: VTVNDITETVR, peptide start residue: 196) | 0.183 |
